The source of these data is US12128053B2 (Woolsey Pharmaceuticals, Inc., priority 2022, dated 2024).

A short description of the data set: Tasting of fasudil formulations (bitterness rank, palatability) by subjects / panel of tasters. Particulars: for Rank# (Bitterness rank): agent added to 3.0 mL fasudil 16 mg/mL stock (Formulation 35A), rank 1 to 10, 10 being most bitter; for taste of the drug: drug itself / fasudil solutions. Type of data set: in vivo, human.

With `NCC(=O)O` [Glycine], the “Rank# (Bitterness rank)” value was found to be 2.

Regarding `CC(O)COC[C@H]1O[C@@H]2O[C@H]3[C@H](O)[C@@H](O)[C@@H](O[C@H]4[C@H](O)[C@@H](O)[C@@H](O[C@H]5[C@H](O)[C@@H](O)[C@@H](O[C@H]6[C@H](O)[C@@H](O)[C@@H](O[C@H]7[C@H](O)[C@@H](O)[C@@H](O[C@H]8[C@H](O)[C@@H](O)[C@@H](O[C@H]1[C@H](O)[C@H]2O)O[C@@H]8COCC(C)O)O[C@@H]7COCC(C)O)O[C@@H]6COCC(C)O)O[C@@H]5COCC(C)O)O[C@@H]4COCC(C)O)O[C@@H]3COCC(C)O` (some centres unmarked) [HPBCD, Hydroxypropyl betacyclodexrin], the “Rank# (Bitterness rank)” value was determined as 7.

As for `CC1CCC(C(C)C)C(O)C1` (centres unmarked) [Menthol], the “Rank# (Bitterness rank)” value is listed as 7.

For `Cl.O=S(=O)(c1cccc2cnccc12)N1CCCNCC1` [fasudil, hexahydro-1-(5-isoquinolinesulfonyl)-1H-1,4-diazepine monohydrochloride hemihydrate], the “taste of the drug” value reads like this: (listed as fasudil hydrochloride, monohydrochloride hemihydrate) “highly aversive numbing and bitter taste”; (monohydrochloride hemihydrate) “very aversive, bitter taste”.

On to `O=S(=O)(c1cccc2c(O)nccc12)N1CCCNCC1` [hydroxyfasudil], for which the “taste of the drug” value was “highly aversive numbing and bitter taste”.

As to “Sulfobutyl ether betacyclodextrin [SBEBCD]”, the “Rank# (Bitterness rank)” value was 3. Besides, the “Rank (bitterness)” value (Table 8: five amounts of agent (about 50-210 mg) in about 2 g stock solution, same rank for all) stood at 3.
